In this assay the test system is L1210 leukemia ip in BDF1 mice, survival T/C. In words: NCI In Vivo Anticancer Drug Screen. Data for tumor model L1210 Leukemia (intraperitoneal) in B6D2F1 (BDF1) mice. To be noted: T/C endpoint: mean survival time, higher T/C = longer survival.

Data on three compounds can be found in PubChem BioAssay AID248 (DTP/NCI, 2004).

The list is a part of this screen's results and no random one: it is rich in T/C values a quarter to a half above the control, in often repeated tests (any T/C) and in doses without a T/C. Other doses and runs of a compound stand elsewhere. T/C gives the treated animals as a percentage of the vehicle group. Some entries give survivors of the animals treated and no T/C: the source holds a T/C of zero for them, seemingly a mark for toxic or unscored doses. Some survivor counts are full or nearly so, which does not show that the dose was tolerated: survival well below the control is almost never listed, so the zero probably covers shortened survival too. Survivors were counted at the toxicity check, usually on the fifth day, unless a day is given; later deaths do not show. Schedule codes are those of the source, read here as Q, the interval in days (D) or hours (H), X, the number of doses. Some schedules carry Z or #; the key to these is not given.

For the compound `Cc1ccc(S(=O)(=O)OC2CC3c4ccccc4C2c2cccc[n+]23)cc1` (stereo not given), the survivor count (dose: 100.0 mg/kg/injection, schedule: Q04DX003 (ip), vehicle: saline) is reported as 3 of 6; the survivor count (dose: 200.0 mg/kg/injection, schedule: Q01DX001 (ip), vehicle: saline) is recorded as 2 of 6; the survivor count (dose: 400.0 mg/kg/injection, schedule: Q01DX001 (ip), vehicle: saline) was 2 of 6.
For `CC(=O)OC(C(O)C=O)C(O)C(O)CO` (stereo not given) (tested in a mixture with another compound), the survivor count (dose: 400.0 mg/kg/injection, schedule: Q04DX002 (ip), vehicle: Klucel (hydroxypropylcellulose) (HPC)) was 3 of 3.
Turning to `NC(N)=N/N=C/C(F)(F)F`, the survivor count (dose: 600.0 mg/kg/injection, schedule: Q01DX Z (ip), vehicle: methylcellulose (MC)) is reported as 2 of 6.
